According to patent US20240131112A1, “USE OF METHANOBACTIN FOR TREATMENT OF IRON-RELATED DISEASES” (Helmholtz Zentrum Muenchen - Deutsches Forschungszentrum …, priority 2021, published 2024):
At least one structure is not confirmed: it was looked up by name or label, or the drawing left a doubt.

System: Huh7 cells (human hepatoma cell line)
Assay: Cellular iron concentration in iron-preloaded Huh7 cells
Type: cell-based
Conditions: Huh7 preloaded 24 hours with 50 μM FAC, then 0.5 mM test substance for 24 hours, N=4
Experimental: FIG. 5: Control Huh7 cells (human hepatoma cell line) were preloaded for 24 hours with 50 μM FAC. The cells were then treated with 0.5 mM MB-SB2, 0.5 mM MB-OB3b and 0.5 mM DFO for 24 hours. […] Statistical analysis was done by One-way ANOVA (N=4).

SMILES: CC(=O)N(O)CCCCCNC(=O)CCC(=O)N(O)CCCCCNC(=O)CCC(=O)N(O)CCCCCN [DFO, Deferoxamine, reference compound]
- Cellular iron concentration: In contrast
